Experimental data as given in PubChem BioAssay AID1259354 (Paczesny and Yang Labs, IUPUI and University of Michigan, 2018).
The campaign covered roughly 78,000 compounds. About 1,800 (2.3%) were called active. The shares of active, inactive and inconclusive entries below differ from those in the screen. No stated cut-off is given here; in the data, active means inhibition above about 30%; inconclusive means mostly about 10% to 28%; inactive means weaker than that.

Sequences of proteins named here, by UniProt entry; tags and fusion partners are left off. A change or cut given only in a name is not applied to a line headed by its entry.
UniProt Q01638: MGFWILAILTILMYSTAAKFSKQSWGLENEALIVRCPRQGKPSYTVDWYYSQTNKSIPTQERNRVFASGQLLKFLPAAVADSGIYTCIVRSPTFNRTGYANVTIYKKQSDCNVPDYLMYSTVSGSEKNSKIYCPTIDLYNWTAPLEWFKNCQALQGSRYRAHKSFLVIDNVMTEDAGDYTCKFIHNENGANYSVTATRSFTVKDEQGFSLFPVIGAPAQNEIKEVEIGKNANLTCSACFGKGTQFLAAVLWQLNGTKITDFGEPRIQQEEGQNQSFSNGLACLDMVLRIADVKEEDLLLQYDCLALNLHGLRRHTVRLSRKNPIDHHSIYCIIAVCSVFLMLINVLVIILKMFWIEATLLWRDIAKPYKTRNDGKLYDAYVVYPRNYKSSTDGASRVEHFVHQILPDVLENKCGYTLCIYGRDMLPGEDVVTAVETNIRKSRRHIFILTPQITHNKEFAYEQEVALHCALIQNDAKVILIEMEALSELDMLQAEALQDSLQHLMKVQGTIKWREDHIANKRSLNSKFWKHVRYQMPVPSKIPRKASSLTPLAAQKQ

Target: Interleukin-1 receptor-like 1 (Homo sapiens) (UniProt Q01638)
Assay: blocks human ST2 binding to IL-33, primary screen, biochemical, AlphaLISA (AID 1259354)
Conditions: AlphaLISA ST2-Fc/biotin-IL-33 interaction, 1 h; at 17 µM, stronger effect = higher value

Question: For CCN1C(=O)NC(=O)/C(=C\c2cn(CC(=O)NCCCOC)c3ccccc23)C1=O, which inhibition is on record?
Answer: inconclusive: 22%

Question: With COc1ccc(CC(C)N2CCN(c3ccccc3)CC2)cc1OC (stereo not given) as the compound, how does the inhibition read?
Answer: inconclusive: 20%

Question: How did the inhibition turn out when CCOc1ccc(-c2cn(-c3ccc(Br)cc3)c(=O)[nH]2)cc1 was run?
Answer: inconclusive: 15%

Question: How did the inhibition turn out when Cc1ccc(NC(=O)C2CCN(c3ccc(-c4cccs4)nn3)CC2)c(C)c1 was run?
Answer: inconclusive: 18%

Question: Cc1cccc(NC(=O)CCN2C(=O)S/C(=C\c3ccccc3)C2=O)c1 was tested. Which inhibition did it give?
Answer: inactive

Question: Which inhibition does the source give for COc1cccc2c(=O)n(CCN3CCOCC3)cnc12 here?
Answer: inactive

Question: With COc1ccc(N=C2C(=O)Nc3ccccc32)cc1 as the compound, how does the inhibition read?
Answer: inconclusive: 14%

Question: For CN1CC(=O)N2C[C@@H](NC(=O)CCN3CCCCCC3=O)C[C@H]2C1=O, which inhibition is on record?
Answer: inconclusive: 23%

Question: COc1ccc(CCNC(=O)c2cccn2-c2nnc(N3CCCCC3)s2)c(OC)c1 was tested. Which inhibition did it give?
Answer: inconclusive: 13%

Question: For O=C(Cn1cnc2c(cnn2-c2ccc(Cl)cc2)c1=O)NC1CCCC1, which inhibition is on record?
Answer: inactive

Question: For CN(C)c1ccc(/C=C/c2nc3ccc(I)cc3c(=O)n2CCO)cc1, which inhibition is on record?
Answer: inconclusive: 17%

Question: With CCc1ccc(CNc2ccc3c(c2)ncn3C(C)(C)C)cc1 as the compound, how does the inhibition read?
Answer: inconclusive: 27%

Question: With Cc1cccc(N2CCN(c3ncnc4c3cnn4-c3ccccc3)CC2C)c1 (stereo not given) as the compound, how does the inhibition read?
Answer: inconclusive: 23%

Question: With COCCN1C(=O)N(CCc2ccccc2)C(=O)C12CCN(C1CCSC1)CC2 (stereo not given) as the compound, how does the inhibition read?
Answer: inactive

Question: With O=C(O)c1cccc2c1NC(c1ccc(F)cc1)C1CC=CC21 (stereo not given) as the compound, how does the inhibition read?
Answer: active: 50%

Question: With CCOc1ccc(C2Nc3ccc(C(=O)c4ccccc4)cc3NC3=C2C(=O)CCC3)cc1 (stereo not given) as the compound, how does the inhibition read?
Answer: inconclusive: 22%

Question: With CCOC(=O)c1c(C)oc2c(Br)cc(NS(=O)(=O)c3ccc(Cl)cc3)cc12 as the compound, how does the inhibition read?
Answer: inactive

Question: With CCOC(=O)CSc1nc2c(sc3ccccc32)c(=O)n1CCCOC(C)C as the compound, how does the inhibition read?
Answer: inactive

Question: How did the inhibition turn out when O=C(N[C@H](CO)CC1CCCCC1)c1cc(CN2CCC(O)CC2)on1 was run?
Answer: inconclusive: 21%

Question: For CC(=O)OC1c2cc(C)ccc2NC(c2ccc(Cl)cc2)C1(C)C (stereo not given), which inhibition is on record?
Answer: inconclusive: 14%

Question: O=C(C1CCCN(Cc2cc3n(n2)CCCNC3)C1)N1CCOCC1 (stereo not given) was tested. Which inhibition did it give?
Answer: inconclusive: 16%

Question: Cc1ccc(N=Cc2ccc(Br)c([N+](=O)[O-])c2)cc1 was tested. Which inhibition did it give?
Answer: inconclusive: 22%

Question: How did the inhibition turn out when Cc1ccc(=O)n(-c2ccccc2)c1 was run?
Answer: inconclusive: 21%

Question: Which inhibition does the source give for CCc1nc2cc(C(=O)N(CC3CC3)CC3CCCO3)cc(NC(=O)c3ccccc3OC)c2n1C (stereo not given) here?
Answer: inconclusive: 11%

Question: How did the inhibition turn out when Cc1ccc(F)cc1N1C(=O)C2CC=CCC2C1=O (stereo not given) was run?
Answer: inconclusive: 12%

Question: Which inhibition does the source give for CCC1CCCCN1C(=O)Nc1ccccc1 (stereo not given) here?
Answer: inconclusive: 14%

Question: With CC(=O)NCC1=CCCN(Cc2nccn2C(C)C)C1 as the compound, how does the inhibition read?
Answer: inconclusive: 10%

Question: How did the inhibition turn out when COc1cncc(-c2ccc(-c3ccn[nH]3)cc2)c1 was run?
Answer: inactive

Question: How did the inhibition turn out when CCOC(=O)C1C(=O)C=C(c2ccc(OC)c(OC)c2)CC1c1ccc(CC)cc1 (stereo not given) was run?
Answer: inactive

Question: Which inhibition does the source give for c1ccc(-c2ccnc(CCn3cnc(-c4ccccc4)c3-c3cnc[nH]3)n2)cc1 here?
Answer: inconclusive: 12%

Question: COc1ccc(C2=NN(C(=O)CSc3ncccn3)C(c3cccc(OC)c3OC)C2)cc1 (stereo not given) was tested. Which inhibition did it give?
Answer: inconclusive: 24%

Question: CC(=O)OC1CC2C(COC(=O)CC(C)C)=COC(OC(=O)CC(C)C)C2C1(O)CCl (stereo not given) was tested. Which inhibition did it give?
Answer: inconclusive: 11%

Question: Cc1cc[n+](C2C(c3ccc(Br)cc3)C(C#N)=C([S-])NC2(O)C2CC2)cc1 (stereo not given) was tested. Which inhibition did it give?
Answer: active: 55%

Question: Which inhibition does the source give for Cc1ccnc(SCCn2c(N(C)Cc3ccccc3)nc3c2c(=O)n(C)c(=O)n3C)n1 here?
Answer: inconclusive: 17%

Question: With O=C(c1ccc(F)c(F)c1)n1nnc2ccccc21 as the compound, how does the inhibition read?
Answer: inactive

Question: Cc1ccc(N2CCn3c2nc2c3c(=O)n(CCc3ccccc3)c(=O)n2C)cc1 was tested. Which inhibition did it give?
Answer: inconclusive: 10%

Question: Which inhibition does the source give for COc1ccccc1CNC(=O)C1CCCN1C(=O)c1ccc(-c2noc(C)n2)cc1 (stereo not given) here?
Answer: inconclusive: 10%

Question: O=C1c2ccccc2NC(c2ccc(F)cc2)N1c1ccccc1 (stereo not given) was tested. Which inhibition did it give?
Answer: inconclusive: 16%

Question: How did the inhibition turn out when Cc1cc2c(c(=O)o1)C(c1ccc(OCc3ccccc3)cc1)C(C#N)=C(N)O2 (stereo not given) was run?
Answer: inactive

Question: Which inhibition does the source give for CC(C)C1CCC2=C(C(=O)OC2)C1/C=C(\CO)C(=O)O (stereo not given) here?
Answer: inconclusive: 15%

Question: For O=C(Nc1ccc(F)cc1F)c1noc2c1CCCCC2, which inhibition is on record?
Answer: inconclusive: 11%

Question: With COc1cccc(Cl)c1-c1csc(C(N)=O)c1 as the compound, how does the inhibition read?
Answer: inactive

Question: Cc1nn(-c2ccc([N+](=O)[O-])cc2)c(C)c1NS(=O)(=O)c1ccccc1 was tested. Which inhibition did it give?
Answer: inactive

Question: How did the inhibition turn out when Cc1ccc(C2CC(=O)CC(c3ccccc3)S2)cc1 (stereo not given) was run?
Answer: inconclusive: 15%

Question: Which inhibition does the source give for COc1cc(C(=O)N2CCc3c([nH]c4ccccc34)C2c2ccccn2)c2ccccc2n1 (stereo not given) here?
Answer: inconclusive: 14%

Question: With Cc1cc(NC(=O)CN2CCCC(Nc3ccc(C(C)C)cc3)C2)no1 (stereo not given) as the compound, how does the inhibition read?
Answer: inconclusive: 12%

Question: Cc1ccccc1-c1cc(O)c2c(c1)CN(Cc1cn(C)nc1C)CCO2 was tested. Which inhibition did it give?
Answer: inconclusive: 14%

Question: COc1ccc(Nc2nc(Cl)nc(Nc3cccc([N+](=O)[O-])c3)n2)cc1 was tested. Which inhibition did it give?
Answer: inconclusive: 12%

Question: How did the inhibition turn out when Cc1ccccc1Cn1nc(C)c(NC(=O)c2noc3c2CCCCC3)c1C was run?
Answer: inactive

Question: For CCOC(=O)c1sc(=Nc2ccccc2)n(-c2ccccc2)c1C, which inhibition is on record?
Answer: inactive

Question: Which inhibition does the source give for CC(C)n1cc(C(=O)N(CCN(C)C)CC2CCCN(Cc3ccccc3F)C2)cn1 (stereo not given) here?
Answer: inconclusive: 16%

Question: How did the inhibition turn out when COc1cc(S(=O)(=O)N2CCN(c3nc(C)cc(Nc4ccc(C)cc4)n3)CC2)c(C)cc1C was run?
Answer: inconclusive: 20%

Question: Which inhibition does the source give for Cc1ccc(-n2c(SCC(=O)NCC3CCCO3)nc3c(c2=O)SCC3)cc1 (stereo not given) here?
Answer: inconclusive: 11%

Question: With Clc1ccc(CNCc2cn[nH]c2-c2ccc(-c3ccccc3)cc2)s1 as the compound, how does the inhibition read?
Answer: inconclusive: 11%

Question: For Cc1cc2c(cc1C)C(c1cccc(Cl)c1)CC(=O)N2 (stereo not given), which inhibition is on record?
Answer: inconclusive: 19%

Question: Which inhibition does the source give for COc1ccc(C(=O)Nc2ccc(C)c(OCc3cc(=O)n4cccc(C)c4n3)c2)cc1 here?
Answer: inconclusive: 19%

Question: For C=CCOC(=O)C1=C(C)OC(N)=C(C#N)C1c1ccc(Br)cc1 (stereo not given), which inhibition is on record?
Answer: inactive

Question: With O=C(c1cccc2c1OCC2)N1CCC(N2CCCC2=O)CC1 as the compound, how does the inhibition read?
Answer: inconclusive: 10%

Question: Which inhibition does the source give for Cc1nc2c(C(=O)NCC3CCCO3)c[nH]n2c(=O)c1Cc1ccccc1Cl (stereo not given) here?
Answer: inconclusive: 13%

Question: How did the inhibition turn out when CC(=O)Nc1ccc(Cl)c(C(=O)Nc2cnc3n2CCCC3)c1 was run?
Answer: inactive
